The experiment concerns P388 leukemia ip, CD2F1 mice, survival T/C. In words: NCI In Vivo Anticancer Drug Screen. Data for tumor model P388 Leukemia (intraperitoneal) in CD2F1 (CDF1) mice. The conditions noted are these: T/C endpoint: median survival time, higher T/C = longer survival.
Where [1] appears, read: dose: 100.0 mg/kg/injection, schedule: Q01DX009 (ip), vehicle: saline with Tween-80.
The mark [2] stands for this setting: dose: 200.0 mg/kg/injection, schedule: Q01DX009 (ip), vehicle: saline with Tween-80.
Setting [3] is: dose: 50.0 mg/kg/injection, schedule: Q01DX009 (ip), vehicle: Klucel (hydroxypropylcellulose) (HPC).
Setting [4] is: dose: 100.0 mg/kg/injection, schedule: Q01DX009 (ip), vehicle: Klucel (hydroxypropylcellulose) (HPC).
Setting [5] is: dose: 200.0 mg/kg/injection, schedule: Q01DX009 (ip), vehicle: Klucel (hydroxypropylcellulose) (HPC).
[6] abbreviates: dose: 240.0 mg/kg/injection, schedule: Q01DX005 (ip), vehicle: saline with Tween-80.
[7] abbreviates: dose: 400.0 mg/kg/injection, schedule: Q04DX003 (ip), vehicle: saline with Tween-80.
The mark [8] stands for this setting: dose: 100.0 mg/kg/injection, schedule: Q04DX003 (ip), vehicle: saline with Tween-80.
Where [9] appears, read: dose: 200.0 mg/kg/injection, schedule: Q04DX003 (ip), vehicle: saline with Tween-80.

Consider 23 compounds from PubChem BioAssay AID330 (DTP/NCI, 2004).

The list is a part of this screen's results and no random one: it is rich in T/C values a quarter to a half above the control, in often repeated tests (any T/C) and in doses without a T/C. Other doses and runs of a compound stand elsewhere. T/C gives the treated animals as a percentage of the vehicle group. Some doses have a count of surviving animals in place of a T/C: the source holds a T/C of zero for them, seemingly a mark for toxic or unscored doses. Some doses without a T/C left all or most animals alive at the check, yet need not have been tolerated: the source hardly ever lists a survival T/C far under the control, and the zero likely stands for such cases as well. Counts of survivors are from the toxicity check (mostly the fifth day) where no day follows; animals may have died later. Schedule codes are those of the source, taken here to give the interval after Q, in days (D) or hours (H), and the number of doses after X. Some doses were run more than once; the values are given in rising order. Some molecules as drawn cover several salts, stereoisomers or complexes of the source; a dose is that of the sample tested. Where survival is the endpoint, the PubChem record calls one and a half times the control and up active, and a quarter to a half above the control has no call in these data; cut-offs in other NCI protocols can differ. Marks such as (2×) stand for listed records that agree. Some T/C values carry the count of animals alive at the toxicity check (mostly the fifth day); without a count, all were alive then.

Consider `C=C1C(O)C2(O)OCC34C(CC5C(C)=CC(=O)C(O)C5(C)C23)OC(=O)C(OC(=O)C/C=C(\C)CCCCC)C14` (stereo unspecified), for which the T/C (dose: 0.25 mg/kg/injection, schedule: Q01DX005 (ip), vehicle: saline + alcohol) was 138 % of control; the T/C (dose: 0.5 mg/kg/injection, schedule: Q01DX005 (ip), vehicle: saline + alcohol) was 142 % of control (2×); the T/C (dose: 1.0 mg/kg/injection, schedule: Q01DX005 (ip), vehicle: saline + alcohol) is 144 and 146 % of control; the T/C (dose: 2.0 mg/kg/injection, schedule: Q01DX005 (ip), vehicle: saline + alcohol) was 146 % of control [5 of 6 alive].

With `C=CC(=NC(C)(C)C)Nc1ccccc1OC`, the T/C (dose: 12.5 mg/kg/injection, schedule: Q01DX009 (ip), vehicle: saline) is 95, 99 [4 of 6 alive], 99 [5 of 6 alive], 118 % of control. Moreover, the survivor count is listed as 0 of 6 (dose: 25.0 mg/kg/injection, schedule: Q01DX009 (ip), vehicle: saline); 0 of 5 (dose: 50.0 mg/kg/injection, schedule: Q01DX005 (ip), vehicle: Klucel (hydroxypropylcellulose) (HPC)); 0 of 6 (dose: 50.0 mg/kg/injection, schedule: Q01DX009 (ip), vehicle: saline with Tween-80); 0 of 6 (dose: 50.0 mg/kg/injection, schedule: Q01DX009 (ip), vehicle: saline); 0 of 5 (dose: 100.0 mg/kg/injection, schedule: Q01DX005 (ip), vehicle: Klucel (hydroxypropylcellulose) (HPC)); 0 of 6 under setting [1]. The survivor count is reported as 0 of 5 (dose: 200.0 mg/kg/injection, schedule: Q01DX005 (ip), vehicle: Klucel (hydroxypropylcellulose) (HPC)) and 0 of 6 under setting [2].

For `CCC1(O)CC(OC2CC(N(C)C)C(OC3CC(O)C(O)C(C)O3)C(C)O2)c2c(cc3c(c2O)C(=O)c2c(O)ccc(O)c2C3=O)C1C(=O)OC` (stereo unspecified), the T/C (dose: 12.5 mg/kg/injection, schedule: Q04DX003 (ip), vehicle: Klucel (hydroxypropylcellulose) (HPC)) was 125 % of control and the T/C (dose: 25.0 mg/kg/injection, schedule: Q04DX003 (ip), vehicle: Klucel (hydroxypropylcellulose) (HPC)) is 129 % of control.

`CC(C)(C)N=C(CCN1CCN(c2ccccc2)CC1)Nc1c(Cl)cccc1Cl`: under setting [2], the survivor count is 0 of 6.

Consider `CC(N=Cc1ccccc1O)c1ccccc1.[CH-]=C([CH2-])C(C)(C)C.[Pd+2]` (stereo unspecified), for which the survivor count reads like this: (dose: 50.0 mg/kg/injection, schedule: Q04DX003 (ip), vehicle: Klucel (hydroxypropylcellulose) (HPC)) 0 of 6; (dose: 100.0 mg/kg/injection, schedule: Q04DX003 (ip), vehicle: Klucel (hydroxypropylcellulose) (HPC)) 0 of 6; (dose: 200.0 mg/kg/injection, schedule: Q04DX003 (ip), vehicle: Klucel (hydroxypropylcellulose) (HPC)) 0 of 6.

`CC(C)(CO)c1ccccc1[P+](C)(C)c1ccccc1`: the survivor count runs as follows: under setting [3], 3 of 6; under setting [4], 0 of 6; under setting [5], 0 of 6.

As for `COc1ccc(-c2sc(/N=C/c3ccc(N(C)CCC#N)cc3)c(C#N)c2C)cc1OC`, the survivor count is, setting by setting: under setting [3], 6 of 6; under setting [4], 6 of 6; under setting [5], 6 of 6; (dose: 400.0 mg/kg/injection, schedule: Q01DX009 (ip), vehicle: Klucel (hydroxypropylcellulose) (HPC)) 6 of 6.

For `O=CNc1ncc([N+](=O)[O-])s1`, the survivor count under setting [1] was 2 of 6 and the survivor count under setting [2] was 1 of 6.

Regarding `N#CC1=C(Nc2ccccc2Cl)SC(c2ccncc2)NC1=O` (stereo unspecified), the T/C (dose: 60.0 mg/kg/injection, schedule: Q01DX005 (ip), vehicle: Klucel (hydroxypropylcellulose) (HPC)) is 126 % of control.

For `C[n+]1c(-c2ccc(/C=N/Nc3ccnc(N/N=C/c4ccc(-c5cn6ccccc6[n+]5C)cc4)n3)cc2)cn2ccccc21`, the T/C by setting is: (dose: 15.0 mg/kg/injection, schedule: Q01DX005 (ip), vehicle: saline with Tween-80) 131 % of control; (dose: 60.0 mg/kg/injection, schedule: Q01DX005 (ip), vehicle: saline with Tween-80) 144 % of control. Also, the survivor count was 0 of 6 (dose: 120.0 mg/kg/injection, schedule: Q01DX005 (ip), vehicle: saline with Tween-80) and 0 of 6 under setting [6].

On to `CC(=O)/C(=C\c1c(Cl)cccc1Cl)C(=O)CCN(C)C`, for which the survivor count (dose: 60.0 mg/kg/injection, schedule: Q01DX005 (ip), vehicle: saline) was 1 of 6; the survivor count (dose: 120.0 mg/kg/injection, schedule: Q01DX005 (ip), vehicle: saline) is 0 of 6; the survivor count (dose: 240.0 mg/kg/injection, schedule: Q01DX005 (ip), vehicle: saline) is reported as 0 of 6.

As to `S=c1[nH]nc(NC2CCCCC2)s1`, the survivor count under setting [7] was 0 of 6.

For the compound `C=CC[n+]1ccc(/C=N\NC(N)=S)c2ccccc21`, the survivor count under setting [2] is on record as 0 of 6.

On to `COc1cc2c(cc1OC)C13CCN4CC5=CCOC6CC(=O)N2C1C6C5CC43` (stereo unspecified) (tested in a mixture with another compound), for which the survivor count under setting [8] was 3 of 6, the survivor count under setting [2] is 2 of 6, the survivor count under setting [9] is reported as 0 of 6 and the survivor count under setting [7] was 1 of 6.

Consider `CNC(=O)Oc1ccc(Sc2ccc(OC(=O)NC)c(Cl)c2)cc1Cl`, for which the T/C (dose: 200.0 mg/kg/injection, schedule: Q01DX005 (ip), vehicle: saline with Tween-80) was 127 % of control.

`CCN(CC)c1c(C)nnc2c3c(-c4ccccc4)c(-c4ccccc4)nnc3nn12`: the survivor count under setting [8] is on record as 6 of 6.

Take `Cc1cccn2c(N=O)cnc12`: the survivor count is, setting by setting: under setting [9], 2 of 6; under setting [7], 0 of 6.

Consider `CN(Cc1cnc2nc(N)nc(N)c2n1)c1ccc(C(=O)NC(CCC(=O)NC(CCC(=O)O)C(=O)O)C(=O)O)cc1` (stereo unspecified), for which the survivor count runs as follows: (dose: 1.56 mg/kg/injection, schedule: Q01DX009 (ip), vehicle: Klucel (hydroxypropylcellulose) (HPC)) 0 of 6; (dose: 3.12 mg/kg/injection, schedule: Q01DX009 (ip), vehicle: Klucel (hydroxypropylcellulose) (HPC)) 0 of 6; (dose: 6.25 mg/kg/injection, schedule: Q01DX009 (ip), vehicle: Klucel (hydroxypropylcellulose) (HPC)) 0 of 6 and 6 of 6; (dose: 12.5 mg/kg/injection, schedule: Q01DX009 (ip), vehicle: Klucel (hydroxypropylcellulose) (HPC)) 0 of 6, 2 of 6, 4 of 6, 5 of 6; (dose: 25.0 mg/kg/injection, schedule: Q01DX009 (ip), vehicle: Klucel (hydroxypropylcellulose) (HPC)) 5 of 6; under setting [3], 5 of 6. The survivor count under setting [4] is on record as 6 of 6.

For the compound `COc1cc2ccc3c4c(OC)c(OC)c(OC)cc4c[n+](C)c3c2cc1OC`, the survivor count (dose: 32.0 mg/kg/injection, schedule: Q01DX009 (ip), vehicle: water) is recorded as 5 of 6.

Regarding `C=C1CCN(c2ccccc2Cl)C1=O`, the T/C reads like this: (dose: 16.0 mg/kg/injection, schedule: Q01DX009 (ip), vehicle: saline + alcohol) 125 % of control; (dose: 64.0 mg/kg/injection, schedule: Q01DX009 (ip), vehicle: saline + alcohol) 125 % of control.

Consider `Cc1cc2nc(C/C(=N/O)c3ccncc3)c(C/C(=N/O)c3ccncc3)nc2cc1C`, for which the survivor count under setting [6] is 6 of 6.

With `Cn1c(=O)ccc2c(=O)c3ccccc3[se]c21`, the survivor count runs as follows: (dose: 79.25 mg/kg/injection, schedule: Q01DX001 (ip), vehicle: saline with Tween-80) 0 of 6; (dose: 158.5 mg/kg/injection, schedule: Q01DX001 (ip), vehicle: saline with Tween-80) 0 of 6; (dose: 317.0 mg/kg/injection, schedule: Q01DX001 (ip), vehicle: saline with Tween-80) 0 of 6.

Regarding `COc1ccc(C2CCCCCC2)c(OC)c1OC`, under setting [4], the survivor count was 5 of 6.
